Results are given in words; binding and its absence hold for the method and conditions named. Binding seen in cells or lysates may run through a third protein. Binding calls can cover weak binding; strength is not graded here. Tags and fused reporters may be left off the sequences shown.
How the values were obtained:
IL12p35-Chis (human) [1] = assay: co-immunoprecipitation, western blot
IL12p35-Chis (human) [2] = assay: co-immunoprecipitation from conditioned medium of co-transfected 293T cells (Ni NTA-agarose pulls down zsig81-Cflag; anti-FLAG-agarose captures IL12p35Chis), western blot

binding (IL12p35-Chis (human) [1]): binds | binding (IL12p35-Chis (human) [2]): binds
B1: zsig81-Cflag (ligand)
chain: SMCHRWSRAVLFPAAHRPKRSSSLPLNPVLQTSLEEVELLYEFLLAELEISPDLQISIKDEELASLRKASDFRTVCNNVIPKSIPDIRRLSASLSSHPGILKKEDFERTVLTLAYTAYRTALSHGHQKDIWAQSLVSLFQALRHDLMRSSQPGVPPDYKDDDDK

Source: US20070014761A1
